Measured values as given in patent US20230218714A1, “DIAGNOSTICS AND USE OF QUORUM SENSING MOLECULES IN MUSCLE WASTING” (Universiteit Gent, priority 2019, published 2023).
Where no end group is shown, it is not given here.

Tests used:
C2C12 myoblasts = experiment: MTT cell viability assay in C2C12 myoblasts; settings: MTT concentration-response curve, Blasts
Method: The mouse myoblast C2C12 cell line (ATCC, CRL-1772) was cultured at 37° C. in a 5% CO2 humidified incubator in Dulbecco's modified Eagle medium (DMEM; Thermo Fisher Scientific). For C2C12 cell proliferation, the medium was supplemented with 10% fetal bovine serum (FBS; Thermo Fisher Scientific), 100 units/ml penicillin, and 100 μg/ml streptomycin (1% Pen/Strep; Thermo Fisher Scientific). The proliferation medium was renewed each 2-3 days and confluency was kept below 80%. For differentiation of the C2C12 myoblasts into myotubes, proliferation medium was replaced by differentiation medium when cells reached 80% confluency.
Viability of QSM was assessed using the 3-(4,5-dimethylthiazol-2-yl)-2,5-diphenyltetrazolium bromide (MTT) assay. Briefly, C2C12 myoblasts were seeded in a 96-well plate (3×10^4 cells/well). 24 hours post-seeding, the wells were treated with QSM (1 μM), placebo or positive control (DMSO 2%) and incubated for 24 hours at 37° C. Next, 20 μL of MTT reagent (5 mg/mL; Sigma-Aldrich) was added to each well and the plates were returned to the incubator for 2.5 hours. […] Absorbance was measured at 570 nm using a microplate reader (Thermo Fisher). […]
In a further set of experiments, the dose response effect of QSPs Q22 and Q184 was assessed on MTT reduction of C2C12 myotubes (tables 7.4 and 7.5).

C2C12 myotubes = experiment: MTT reduction dose response in C2C12 myotubes; assay type: cell-based, mouse; settings: MTT concentration-response curve, Tubes
Method: In a further set of experiments, using similar methods as described for the screening experiments, a number of QSPs were tested for a dose response relation in C2C12 cells.

SIFTLVA [Q184, SIFTLVA]
Slope (C2C12 myoblasts): 1.67 | Slope (C2C12 myotubes): 0.68
